This experiment deals with T1, VC155-POU6F1 (pBiFC-VC155-POU6F1) (human) (UniProt Q14863).
T1 sequence: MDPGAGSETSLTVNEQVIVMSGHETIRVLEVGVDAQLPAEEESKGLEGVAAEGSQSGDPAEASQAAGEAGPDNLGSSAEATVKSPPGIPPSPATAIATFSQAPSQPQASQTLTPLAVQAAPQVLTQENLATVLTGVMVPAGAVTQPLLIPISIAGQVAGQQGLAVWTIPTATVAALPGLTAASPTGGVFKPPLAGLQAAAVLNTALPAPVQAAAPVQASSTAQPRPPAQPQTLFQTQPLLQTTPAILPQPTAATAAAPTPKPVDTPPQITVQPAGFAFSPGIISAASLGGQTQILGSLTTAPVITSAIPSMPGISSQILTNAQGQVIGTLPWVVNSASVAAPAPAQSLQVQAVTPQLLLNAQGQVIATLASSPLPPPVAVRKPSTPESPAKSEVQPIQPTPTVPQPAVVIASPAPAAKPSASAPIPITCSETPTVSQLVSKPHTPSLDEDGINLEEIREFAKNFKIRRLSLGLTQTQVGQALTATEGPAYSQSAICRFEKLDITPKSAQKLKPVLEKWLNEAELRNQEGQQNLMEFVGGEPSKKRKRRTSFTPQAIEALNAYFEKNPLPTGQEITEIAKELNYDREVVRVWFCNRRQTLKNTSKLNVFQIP
Nature of the experiment: split reporter; BiFC; A549 cells co-transfected with pBiFC-VC155-POU6F1 and pBiFC-VN173-RORA for 24 h; confocal microscopy, excitation 488 nm, emission 500 nm.

The results in this text go back to PMC9065044.

Results are given in words; binding and its absence hold for the method and conditions named. In cells and extracts the contact can be indirect. Binding calls can cover weak binding; strength is not graded here.

As for VN173-RORA (pBiFC-VN173-RORA) (human), the binding entry was “binds”.
